We go through one compound from PubChem BioAssay AID2446 (Broad Institute, 2010).

The other results are listed elsewhere or left out. Entries with a potency or affinity are not part of this list. The source made no clear call on entries shown without one.

The nature of this test: PubChem AID 2446. As to conditions: H4 cells, PrP 5'UTR luciferase reporter, luminescence; at 19.5 µM (top of the series). In general terms: Reporter assays use an easily measured gene product as a stand-in for the process of interest.

For `CN(C)c1nc(N)nc(CSc2nnnn2-c2cccc3ccccc23)n1`, the activation was -10.6%.
